Test results as given in the supplement of paper PMC11546906.
Structures can show the parent of a compound that is named as a salt. The list shows a part of the results. Single values are uncertain here, since repeats match poorly.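 Screen of FDA-approved drugs, each combined with colistin at one-eighth of its MIC, against a multidrug-resistant mcr-1-positive clinical E. coli isolate; growth read as OD600 after 24 h. Bacteria without drug were the growth control and plain broth the blank. A combination counted as active when OD600 fell below 0.2.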

Test system: Escherichia coli 42 (mcr-1-positive clinical isolate)
Test: OD600 after 24 h growth with compound plus colistin (absorbance units (OD600)); higher = more bacterial growth (less inhibition)
Conditions: first compound 25 µM; colistin concentration 0.5 ug/mL; incubation time 24 h; 37 °C

SMILES | OD600
CO[C@H]1C[C@@H]2CC[C@@H](C)[C@@](O)(O2)C(=O)C(=O)N2CCCC[C@H]2C(=O)O[C@H]([C@H](C)C[C@@H]2CC[C@@H](OC(=O)C(C)(CO)CO)[C@H](OC)C2)CC(=O)[C@H](C)/C=C(\C)[C@@H](O)[C@@H](OC)C(=O)[C@H](C)C[C@H](C)/C=C/C=C/C=C/1C [Temsirolimus] + CCC(C)CCCC(=O)N[C@@H](CCN)C(=O)N[C@H](C(=O)N[C@@H](CCN)C(=O)N[C@H]1CCNC(=O)[C@H]([C@@H](C)O)NC(=O)[C@H](CCN)NC(=O)[C@H](CCN)NC(=O)[C@H](CC(C)C)NC(=O)[C@@H](CC(C)C)NC(=O)[C@H](CCN)NC1=O)[C@@H](C)O [colistin] | inactive: 0.914
CCCOc1ccc(C(=O)OCCN(CC)CC)cc1N [Proparacaine hydrochloride] + CCC(C)CCCC(=O)N[C@@H](CCN)C(=O)N[C@H](C(=O)N[C@@H](CCN)C(=O)N[C@H]1CCNC(=O)[C@H]([C@@H](C)O)NC(=O)[C@H](CCN)NC(=O)[C@H](CCN)NC(=O)[C@H](CC(C)C)NC(=O)[C@@H](CC(C)C)NC(=O)[C@H](CCN)NC1=O)[C@@H](C)O [colistin] | inactive: 0.992
C[C@]12C=CC(=O)C=C1CC[C@H]1[C@@H]3C[C@@H](O)[C@](O)(C(=O)CO)[C@@]3(C)C[C@H](O)[C@@]12F [Triamcinolone] + CCC(C)CCCC(=O)N[C@@H](CCN)C(=O)N[C@H](C(=O)N[C@@H](CCN)C(=O)N[C@H]1CCNC(=O)[C@H]([C@@H](C)O)NC(=O)[C@H](CCN)NC(=O)[C@H](CCN)NC(=O)[C@H](CC(C)C)NC(=O)[C@@H](CC(C)C)NC(=O)[C@H](CCN)NC1=O)[C@@H](C)O [colistin] | inactive: 1.01
CNCC[C@H](Oc1cccc2ccccc12)c1cccs1 [Duloxetine hydrochloride] + CCC(C)CCCC(=O)N[C@@H](CCN)C(=O)N[C@H](C(=O)N[C@@H](CCN)C(=O)N[C@H]1CCNC(=O)[C@H]([C@@H](C)O)NC(=O)[C@H](CCN)NC(=O)[C@H](CCN)NC(=O)[C@H](CC(C)C)NC(=O)[C@@H](CC(C)C)NC(=O)[C@H](CCN)NC1=O)[C@@H](C)O [colistin] | inactive: 0.818
COc1cc(N2CCC(N(C)C)CC2)ccc1Nc1ncc(Cl)c(Nc2ccccc2P(C)(C)=O)n1 + CCC(C)CCCC(=O)N[C@@H](CCN)C(=O)N[C@H](C(=O)N[C@@H](CCN)C(=O)N[C@H]1CCNC(=O)[C@H]([C@@H](C)O)NC(=O)[C@H](CCN)NC(=O)[C@H](CCN)NC(=O)[C@H](CC(C)C)NC(=O)[C@@H](CC(C)C)NC(=O)[C@H](CCN)NC1=O)[C@@H](C)O [colistin] | inactive: 1.11
CCCS(=O)(=O)Nc1ccc(F)c(C(=O)c2c[nH]c3ncc(-c4ccc(Cl)cc4)cc23)c1F [Vemurafenib] + CCC(C)CCCC(=O)N[C@@H](CCN)C(=O)N[C@H](C(=O)N[C@@H](CCN)C(=O)N[C@H]1CCNC(=O)[C@H]([C@@H](C)O)NC(=O)[C@H](CCN)NC(=O)[C@H](CCN)NC(=O)[C@H](CC(C)C)NC(=O)[C@@H](CC(C)C)NC(=O)[C@H](CCN)NC1=O)[C@@H](C)O [colistin] | inactive: 0.991
C[C@H](CCC(=O)O)[C@H]1CC[C@H]2[C@@H]3[C@H](O)C[C@@H]4C[C@H](O)CC[C@]4(C)[C@H]3CC[C@]12C [Chenodeoxycholic acid] + CCC(C)CCCC(=O)N[C@@H](CCN)C(=O)N[C@H](C(=O)N[C@@H](CCN)C(=O)N[C@H]1CCNC(=O)[C@H]([C@@H](C)O)NC(=O)[C@H](CCN)NC(=O)[C@H](CCN)NC(=O)[C@H](CC(C)C)NC(=O)[C@@H](CC(C)C)NC(=O)[C@H](CCN)NC1=O)[C@@H](C)O [colistin] | inactive: 1.2
CC(C(=O)O)c1ccc(-c2ccccc2)c(F)c1 (stereo not drawn) [Flurbiprofen] + CCC(C)CCCC(=O)N[C@@H](CCN)C(=O)N[C@H](C(=O)N[C@@H](CCN)C(=O)N[C@H]1CCNC(=O)[C@H]([C@@H](C)O)NC(=O)[C@H](CCN)NC(=O)[C@H](CCN)NC(=O)[C@H](CC(C)C)NC(=O)[C@@H](CC(C)C)NC(=O)[C@H](CCN)NC1=O)[C@@H](C)O [colistin] | inactive: 0.785
CN[C@H](CC(C)C)C(=O)N[C@H]1C(=O)N[C@@H](CC(N)=O)C(=O)N[C@H]2C(=O)N[C@H]3C(=O)N[C@H](C(=O)N[C@H](C(=O)O)c4cc(O)cc(O)c4-c4cc3ccc4O)[C@H](O)c3ccc(c(Cl)c3)Oc3cc2cc(c3O[C@@H]2O[C@H](CO)[C@@H](O)[C@H](O)[C@H]2O[C@H]2C[C@](C)(N)[C@H](O)[C@H](C)O2)Oc2ccc(cc2Cl)[C@H]1O [Vancomycin hydrochloride] + CCC(C)CCCC(=O)N[C@@H](CCN)C(=O)N[C@H](C(=O)N[C@@H](CCN)C(=O)N[C@H]1CCNC(=O)[C@H]([C@@H](C)O)NC(=O)[C@H](CCN)NC(=O)[C@H](CCN)NC(=O)[C@H](CC(C)C)NC(=O)[C@@H](CC(C)C)NC(=O)[C@H](CCN)NC1=O)[C@@H](C)O [colistin] | inactive: 0.806
CC1(C)O[C@@H]2C[C@H]3[C@@H]4CCC5=CC(=O)C=C[C@]5(C)[C@H]4[C@@H](O)C[C@]3(C)[C@]2(C(=O)CO)O1 [Desonide] + CCC(C)CCCC(=O)N[C@@H](CCN)C(=O)N[C@H](C(=O)N[C@@H](CCN)C(=O)N[C@H]1CCNC(=O)[C@H]([C@@H](C)O)NC(=O)[C@H](CCN)NC(=O)[C@H](CCN)NC(=O)[C@H](CC(C)C)NC(=O)[C@@H](CC(C)C)NC(=O)[C@H](CCN)NC1=O)[C@@H](C)O [colistin] | inactive: 0.825
Nc1ccc(C(=O)O)c(O)c1 [Sodium 4-aminosalicylate dihydrate] + CCC(C)CCCC(=O)N[C@@H](CCN)C(=O)N[C@H](C(=O)N[C@@H](CCN)C(=O)N[C@H]1CCNC(=O)[C@H]([C@@H](C)O)NC(=O)[C@H](CCN)NC(=O)[C@H](CCN)NC(=O)[C@H](CC(C)C)NC(=O)[C@@H](CC(C)C)NC(=O)[C@H](CCN)NC1=O)[C@@H](C)O [colistin] | inactive: 0.973
CCc1cc(C(N)=S)ccn1 [Ethionamide] + CCC(C)CCCC(=O)N[C@@H](CCN)C(=O)N[C@H](C(=O)N[C@@H](CCN)C(=O)N[C@H]1CCNC(=O)[C@H]([C@@H](C)O)NC(=O)[C@H](CCN)NC(=O)[C@H](CCN)NC(=O)[C@H](CC(C)C)NC(=O)[C@@H](CC(C)C)NC(=O)[C@H](CCN)NC1=O)[C@@H](C)O [colistin] | active: 0.038
COc1ncnc(NS(=O)(=O)c2ccc(N)cc2)c1OC [Sulfadoxine] + CCC(C)CCCC(=O)N[C@@H](CCN)C(=O)N[C@H](C(=O)N[C@@H](CCN)C(=O)N[C@H]1CCNC(=O)[C@H]([C@@H](C)O)NC(=O)[C@H](CCN)NC(=O)[C@H](CCN)NC(=O)[C@H](CC(C)C)NC(=O)[C@@H](CC(C)C)NC(=O)[C@H](CCN)NC1=O)[C@@H](C)O [colistin] | inactive: 0.975
O=C(O[C@@H]1C[C@@H]2C[C@H]3C[C@H](C1)N2CC3=O)c1c[nH]c2ccccc12 [Dolasetron Mesylate hydrate] + CCC(C)CCCC(=O)N[C@@H](CCN)C(=O)N[C@H](C(=O)N[C@@H](CCN)C(=O)N[C@H]1CCNC(=O)[C@H]([C@@H](C)O)NC(=O)[C@H](CCN)NC(=O)[C@H](CCN)NC(=O)[C@H](CC(C)C)NC(=O)[C@@H](CC(C)C)NC(=O)[C@H](CCN)NC1=O)[C@@H](C)O [colistin] | inactive: 0.984
O=C1c2ccccc2C(=O)C1c1ccccc1 [Phenindione] + CCC(C)CCCC(=O)N[C@@H](CCN)C(=O)N[C@H](C(=O)N[C@@H](CCN)C(=O)N[C@H]1CCNC(=O)[C@H]([C@@H](C)O)NC(=O)[C@H](CCN)NC(=O)[C@H](CCN)NC(=O)[C@H](CC(C)C)NC(=O)[C@@H](CC(C)C)NC(=O)[C@H](CCN)NC1=O)[C@@H](C)O [colistin] | inactive: 1.1
CN(C)[C@@H]1C(=O)C(C(N)=O)=C(O)[C@@]2(O)C(=O)C3=C(O)c4c(O)ccc(Cl)c4[C@@H](O)[C@H]3C[C@@H]12 [Demeclocycline hydrochloride] + CCC(C)CCCC(=O)N[C@@H](CCN)C(=O)N[C@H](C(=O)N[C@@H](CCN)C(=O)N[C@H]1CCNC(=O)[C@H]([C@@H](C)O)NC(=O)[C@H](CCN)NC(=O)[C@H](CCN)NC(=O)[C@H](CC(C)C)NC(=O)[C@@H](CC(C)C)NC(=O)[C@H](CCN)NC1=O)[C@@H](C)O [colistin] | inactive: 0.99
C[C@@H](Oc1cc(-c2cnn(C3CCNCC3)c2)cnc1N)c1c(Cl)ccc(F)c1Cl [Crizotinib] + CCC(C)CCCC(=O)N[C@@H](CCN)C(=O)N[C@H](C(=O)N[C@@H](CCN)C(=O)N[C@H]1CCNC(=O)[C@H]([C@@H](C)O)NC(=O)[C@H](CCN)NC(=O)[C@H](CCN)NC(=O)[C@H](CC(C)C)NC(=O)[C@@H](CC(C)C)NC(=O)[C@H](CCN)NC1=O)[C@@H](C)O [colistin] | inactive: 0.969
C1CCN2C[C@@H]3C[C@@H](CN4CCCC[C@@H]34)[C@H]2C1 [(-)-Sparteine sulfate pentahydrate] + CCC(C)CCCC(=O)N[C@@H](CCN)C(=O)N[C@H](C(=O)N[C@@H](CCN)C(=O)N[C@H]1CCNC(=O)[C@H]([C@@H](C)O)NC(=O)[C@H](CCN)NC(=O)[C@H](CCN)NC(=O)[C@H](CC(C)C)NC(=O)[C@@H](CC(C)C)NC(=O)[C@H](CCN)NC1=O)[C@@H](C)O [colistin] | inactive: 0.875

2 records drawn at random from those above, as already listed:
SMILES | OD600
C[C@H](CCC(=O)O)[C@H]1CC[C@H]2[C@@H]3[C@H](O)C[C@@H]4C[C@H](O)CC[C@]4(C)[C@H]3CC[C@]12C [Chenodeoxycholic acid] + CCC(C)CCCC(=O)N[C@@H](CCN)C(=O)N[C@H](C(=O)N[C@@H](CCN)C(=O)N[C@H]1CCNC(=O)[C@H]([C@@H](C)O)NC(=O)[C@H](CCN)NC(=O)[C@H](CCN)NC(=O)[C@H](CC(C)C)NC(=O)[C@@H](CC(C)C)NC(=O)[C@H](CCN)NC1=O)[C@@H](C)O [colistin] | inactive: 1.2
CC(C(=O)O)c1ccc(-c2ccccc2)c(F)c1 (stereo not drawn) [Flurbiprofen] + CCC(C)CCCC(=O)N[C@@H](CCN)C(=O)N[C@H](C(=O)N[C@@H](CCN)C(=O)N[C@H]1CCNC(=O)[C@H]([C@@H](C)O)NC(=O)[C@H](CCN)NC(=O)[C@H](CCN)NC(=O)[C@H](CC(C)C)NC(=O)[C@@H](CC(C)C)NC(=O)[C@H](CCN)NC1=O)[C@@H](C)O [colistin] | inactive: 0.785
